## Library screening results

Protein sequences, listed by entry. Tags and fused reporters are not part of them.
UniProt E9BF75, entry or part of it: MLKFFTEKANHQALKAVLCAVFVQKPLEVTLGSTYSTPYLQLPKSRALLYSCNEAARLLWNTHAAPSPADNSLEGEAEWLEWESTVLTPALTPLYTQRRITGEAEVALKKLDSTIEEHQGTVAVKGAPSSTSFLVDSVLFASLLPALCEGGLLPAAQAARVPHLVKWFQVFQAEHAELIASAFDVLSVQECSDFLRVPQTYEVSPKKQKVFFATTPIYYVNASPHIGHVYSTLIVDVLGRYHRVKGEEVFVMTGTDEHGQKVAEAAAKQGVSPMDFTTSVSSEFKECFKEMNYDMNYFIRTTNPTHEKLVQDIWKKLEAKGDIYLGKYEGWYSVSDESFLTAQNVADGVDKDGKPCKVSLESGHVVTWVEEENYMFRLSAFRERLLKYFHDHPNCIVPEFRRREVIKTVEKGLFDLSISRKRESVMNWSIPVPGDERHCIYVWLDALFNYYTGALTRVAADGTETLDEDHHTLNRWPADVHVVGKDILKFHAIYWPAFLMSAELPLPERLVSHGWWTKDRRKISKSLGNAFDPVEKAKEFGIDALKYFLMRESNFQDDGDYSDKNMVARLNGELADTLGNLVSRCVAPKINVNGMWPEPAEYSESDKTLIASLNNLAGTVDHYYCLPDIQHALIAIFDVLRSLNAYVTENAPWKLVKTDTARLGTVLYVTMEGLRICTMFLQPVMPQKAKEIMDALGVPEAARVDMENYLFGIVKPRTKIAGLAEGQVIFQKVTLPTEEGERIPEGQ

From ChEMBL document CHEMBL3988442, “University of Dundee, Small-Polar-MMV Screening Library” (2021).

Mtb heat-shock: 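Assay on Mycobacterium tuberculosis, filed only as a heat shock assay from Cornell; the read-out is not stated. The concentration is filed as 10 mM, unlikely as a test dose, so the dose is not known. The record gives no direction; compounds that gave an IC50 in retests scored well above the rest, so higher reads as stronger inhibition. About 69,000 compounds were tested under these conditions; 1.4% (about 930) showed 50% or more at least once.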
LdMetRS: 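Primary screen of methionyl-tRNA synthetase; the read-out is not stated. Target: Methionyl-tRNA synthetase (putative), Leishmania donovani (UniProt E9BF75). The test concentration is not given. The values are filed as inhibition. Of about 68,000 compounds tested this way, about 24 (0.035%) reached 50% or more in at least one test.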
Mtb growth Cornell: 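Whole-cell assay for inhibitors of Mycobacterium tuberculosis growth, labelled Cornell in the record; the read-out is not stated. The concentration is filed as 10 mM, unlikely as a test dose, so the dose is not known. Higher means stronger inhibition (inferred from two other growth screens of the library). Of about 53,000 compounds tested this way, about 900 (1.7%) reached 50% or more in at least one test.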

All values are in %. The record does not define 0% and 100%; most values in the screen are far below 50% and negative numbers occur (in some assays of this library far below -100). Compounds were drawn at random from those tested, without regard to their results.

- CNC(=O)C(NC(C)=O)c1ccc(F)c(F)c1 (centres undefined) | Mtb heat-shock: 2.958%; LdMetRS: 10.44%; Mtb growth Cornell: -25.21%
- CN(Cc1ncc(-c2ccccc2C(=O)O)s1)c1ncccn1 | Mtb heat-shock: -17.37%; LdMetRS: 5.233%; Mtb growth Cornell: -32.5%
- CCC[C@@H]1CN(Cc2cnc3c(S(C)(=O)=O)cnn3c2)C[C@H]1N(C)C | Mtb heat-shock: -206.2%; LdMetRS: 12.39%
- CC(C(=O)NCCc1ccc2c(c1)OCCO2)n1cncn1 (centres undefined) | Mtb heat-shock: 23.53%; LdMetRS: 15.87%; Mtb growth Cornell: -28.45%
- CCCc1n[nH]c(C2CN(CCNC3CCCCC3)CCO2)n1 (centres undefined) | Mtb heat-shock: -30.2%; LdMetRS: -1.781%; Mtb growth Cornell: -27.77%
- CN1CC2(CNCCN(C(=O)Nc3ccccc3)C2)CC1=O (centres undefined) | LdMetRS: 10.56%
- CCCn1nccc1NC(=O)c1ccc(Cl)c(N2CCNC2=O)c1 | Mtb heat-shock: 13.72%; LdMetRS: 11.08%
- [H][C@@]12CCN(C(=O)Cc3ccsc3)C[C@]1([H])[C@H](c1nc(C)no1)CCO2 | Mtb heat-shock: -4.419%; Mtb growth Cornell: -7.139%
- CSc1cccc(CNC(=O)C2CC(=O)N(C3CC3)C2)c1 (centres undefined) | Mtb heat-shock: -5.698%; LdMetRS: 17.32%; Mtb growth Cornell: -20.34%
- c1ccc(Cc2nc(CNCCn3cccn3)cs2)cc1 | Mtb heat-shock: 96.34%; LdMetRS: 19.9%; Mtb growth Cornell: 73.18%
- CC(C)CNC(=O)[C@H]1CCS(=O)(=O)[C@@H]2CN(c3ncccn3)C[C@H]12 | LdMetRS: 12.9%
- Cc1ccc(CC(=O)Nc2cc(C(C)C)n[nH]2)cn1 | Mtb heat-shock: -10.5%; LdMetRS: 22.51%; Mtb growth Cornell: -26.84%
- c1cc(CN2CCC[C@@H](Cn3nnc(-c4cnccn4)n3)C2)ccn1 | Mtb heat-shock: -6.114%; LdMetRS: 9.884%; Mtb growth Cornell: 30.8%
- COc1ccc(OC)c(C(O)CN2CCN(c3cccc(C)c3)CC2)c1 (centres undefined) | Mtb heat-shock: 2.437%; LdMetRS: 16.9%; Mtb growth Cornell: 34%
- CN(CCNC(=O)c1cccnc1)S(C)(=O)=O | Mtb heat-shock: 13.01%; LdMetRS: 2.046%; Mtb growth Cornell: -3.878%
- O=C(CCN1CCCCC1c1cc2ccccc2[nH]1)N1CCOCC1 (centres undefined) | Mtb heat-shock: -13.54%; LdMetRS: 3.623%; Mtb growth Cornell: -19.33%
- O=C1O[C@@H]2CN(c3cnccn3)C[C@@H]2N1CCCc1ccc(F)cc1 | LdMetRS: 6.452%
- O=C(O)C(F)(F)F.[H][C@@]12CCN(c3nnc(C)s3)C[C@@]1([H])O[C@H](c1nc(C)no1)C2 | Mtb heat-shock: 46.76%; Mtb growth Cornell: -10.09%
- Cc1ccc(CN2Cc3nccn3CC(Cn3cccn3)C2)s1.O=C(O)C(F)(F)F (centres undefined) | Mtb heat-shock: 25.98%; Mtb growth Cornell: 3.417%
- Fc1ccc(CN2CCC(c3noc(-c4cnccn4)n3)CC2)cc1F | Mtb heat-shock: -11.93%; LdMetRS: 23.42%; Mtb growth Cornell: 8.851%
- COc1cc(F)c(S(=O)(=O)NCc2ccnc(N(C)C)n2)cc1OC | Mtb heat-shock: 2.599%; LdMetRS: 17.13%; Mtb growth Cornell: 7.606%
- CCCC(=O)N1CCC2(CC1)CC(NC(C)=O)c1ccccc1O2 (centres undefined) | Mtb heat-shock: -9.008%; LdMetRS: 3.704%; Mtb growth Cornell: 5.377%
- NC(=O)Cn1ccc(NC(=O)C2(c3cccc(Cl)c3)CC2)n1 | Mtb heat-shock: -39.42%; LdMetRS: 10.37%; Mtb growth Cornell: -8.517%
- O=C(O)C(F)(F)F.O=C(O)C(F)(F)F.[H][C@@]12CCN(c3nncs3)[C@@]1([H])CCN2Cc1csc(C)n1 | Mtb heat-shock: -11.65%; Mtb growth Cornell: 6.412%
- CC(C)(C)c1nc(CN2CCC3(CCCO3)CCC2=O)no1 (centres undefined) | Mtb heat-shock: -3.292%; LdMetRS: 5.028%; Mtb growth Cornell: -7.657%
- Cn1cc(C(=O)O)c(-c2ccc(F)cc2F)n1 | Mtb heat-shock: 9.39%; LdMetRS: 7.754%
- CCn1ncc2c1C(COCC1CC1)N(Cc1nccs1)CC2 (centres undefined) | LdMetRS: 16.38%
- CC1CCC(N2CCC(NS(=O)(=O)CCCF)CC2)CC1 (centres undefined) | Mtb heat-shock: -23.46%; LdMetRS: 18.55%; Mtb growth Cornell: 6.373%
- COc1cccc2c1ccn2CC(=O)N1CCCC(C(=O)O)C1 (centres undefined) | Mtb heat-shock: -5.804%; LdMetRS: 2.915%; Mtb growth Cornell: 2.004%
- Cc1ccccc1OCC(=O)N1CC[C@]2(C[C@@H](OCC3CC3)CO2)C1 | Mtb heat-shock: -13.35%; LdMetRS: 14.89%; Mtb growth Cornell: 34.46%
- Nc1ccnc(N2CCC(c3nccn3CC3CC3)CC2)n1 | Mtb heat-shock: -24.73%; LdMetRS: 10.84%; Mtb growth Cornell: -15.43%
- CN(Cc1ccco1)Cc1cnc2n1CCN(c1ncccn1)CC2 | LdMetRS: -57.25%
- Cn1c(CN2CCOC(CCc3ccncn3)C2)nc2ccccc21 (centres undefined) | Mtb heat-shock: -2.027%; LdMetRS: 12.86%; Mtb growth Cornell: -10.6%
- CN(CCC(O)c1ccccc1)c1cc(C2CC2)ncn1 (centres undefined) | Mtb heat-shock: -0.2554%; LdMetRS: 13.01%; Mtb growth Cornell: 19.87%
- CC1(NC(=O)CC2CCc3ccccc32)CCOCC1 (centres undefined) | Mtb heat-shock: 15.81%; LdMetRS: 7.801%; Mtb growth Cornell: 7.657%
- Cc1nc(C)c(CC(=O)N2C[C@@H](C(=O)O)[C@H](c3ccccc3C)C2)s1 | Mtb heat-shock: 11.42%; LdMetRS: 8.591%; Mtb growth Cornell: -8.478%
- CN1CCN(Cc2cn3c(n2)CN(C2CCOCC2)CC3)CC1.O=C(O)C(F)(F)F.O=C(O)C(F)(F)F.O=C(O)C(F)(F)F | Mtb heat-shock: 8.928%; Mtb growth Cornell: 20.06%
- O=C(NCC1CC1)C1CN(C(=O)Cc2cccs2)CC12CCOCC2 (centres undefined) | Mtb heat-shock: -28.71%; LdMetRS: 9.446%; Mtb growth Cornell: 8.063%

Once more, the final 4:

- CC1(NC(=O)CC2CCc3ccccc32)CCOCC1 (centres undefined) : Mtb heat-shock: 15.81%; LdMetRS: 7.801%; Mtb growth Cornell: 7.657%
- Cc1nc(C)c(CC(=O)N2C[C@@H](C(=O)O)[C@H](c3ccccc3C)C2)s1 : Mtb heat-shock: 11.42%; LdMetRS: 8.591%; Mtb growth Cornell: -8.478%
- CN1CCN(Cc2cn3c(n2)CN(C2CCOCC2)CC3)CC1.O=C(O)C(F)(F)F.O=C(O)C(F)(F)F.O=C(O)C(F)(F)F : Mtb heat-shock: 8.928%; Mtb growth Cornell: 20.06%
- O=C(NCC1CC1)C1CN(C(=O)Cc2cccs2)CC12CCOCC2 (centres undefined) : Mtb heat-shock: -28.71%; LdMetRS: 9.446%; Mtb growth Cornell: 8.063%